# Experimental data taken from PubChem BioAssay AID1508600 (Functional Genomics Laboratory (NCATS/FGL), 2020).
# Screen size: about 53,000 sequences; about 3,700 (7%) were called active.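 The calls were made as follows: active = gene knockdowns whose robust z-score for IL-1 alpha signal is at least 2 or at most -2, so actives lie on both sides; inactive = the rest.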 The list shows a part of the results.
# Assay: Components of the Cytosolic LPS Sensing Pathway: Gene Identification via Genome-wide siRNA Screen;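 also: robust z of the log signal after scaling to non-targeting control siRNA wells of the plate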
# Conditions: RAW264.7 macrophages, IL-1a HTRF, actives lie on both sides, screened at 100 nM (by protocol), cells primed 5 h with Pam3CSK4 first
# Procedure, shortened: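 Three distinct siRNAs per gene were tested singly at 100 nM in RAW264.7 macrophages. Following Pam3CSK4 priming and 24 hour LipidA transfection, IL-1a secretion was read by HTRF.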
row,Sequence,z-score
1,GGUUUGCUGAGAAAUUAACTT against Btg3,inactive: 0.958
2,CCACGACGUACAUCCAUAATT against Tmem181a,inactive: -1.02
3,GCUUACCGAUGGGAUGACGTT against Omd,inactive: -0.809
4,GGAAGAUUUCACAUCUCAGTT against Pdia5,inactive: -0.528
5,CCACGAAGAGCAAGAAAACTT against Gm5941,inactive: -1.15
6,CACAGAACAUCAUCUCCCATT against Olfr887,active: -2.79
7,GCAGCAAUCAGAUCAUGUATT against Platr26,inactive: -0.694
8,GGGACAUUUUCAGUUUUCUTT against Brk1,inactive: 0.776
9,GGAGUUGUCUUCAAGAAAUTT against Rassf4,inactive: 0.305
10,GGAGAUGAAUCACUAACCATT against Fgf5,inactive: -0.256
11,CGUGGAAAUGUCUUAAAUCTT against Folh1,inactive: 0.412
12,AAACUAGGGUCGAUUUCACTT against Hmgn3,inactive: 0.704
13,GCCUUUGAUAAAAGUCCGGTT against Saxo2,inactive: -0.93
14,GCAGGAGUAUUGCCAAGGATT against Csf1,inactive: -0.404
15,CCCUCUAUCCCUCUGUAAGTT against Spsb2,inactive: -0.377
16,CCAGCUGUUCGCAAAAAAATT against Zranb2,inactive: 0.557
17,GCACCUUUGCUUCAGGUAGTT against Ttf2,inactive: -0.837
18,GGUAGGAGCUCUGAACACUTT against Josd1,inactive: 0.128
19,CGUGACUCUGCUUUAACUCTT against Col27a1,active: -2.27
20,GCUGGAAUGUAACUGUUUCTT against Ceacam18,inactive: 0.169
21,GGUGUUAGAUUCUUUGUAATT against Cst6,active: 2.04
22,GCCUUAGAAGUUAACAUGUTT against Suco,inactive: -0.368

row,Sequence,z-score
1,CCAGUAGCACGUGUUAUUUTT against Rbmy,inactive: 0.0944
2,GGAACUGAUUGAAAACAUCTT against Syce2,active: 2.97
3,GGAUGUGCAUCACUUCAACTT against Sgsh,inactive: -1.75
4,GGAAAGAUUGUUUGAAGGCTT against Cask,inactive: -0.252
5,GGUGACAAUAAAAUGGUGATT against Fabp1,inactive: -0.279
6,GGAGACUUAUUGAGCAAGUTT against Usp44,active: 4.42
7,GGAGAAGACAUGUUAAUAATT against Aox1,inactive: -0.305
8,GGAUGUUGCGUCACCUACGTT against Zfp423,inactive: -0.349
9,GGAGAUGGCUUCUCUCUCGTT against Rarg,inactive: 1.22
10,GGCCAACACUGAUACCAAATT against Plau,inactive: 0.74
11,GCUGAUGGACUCAAGAAAGTT against Zbed5,inactive: -0.805
12,CGACGAAGCGACCAUUCUUTT against Jchain,inactive: -0.386
13,GGCUUCAGCCAGAGUUCAGTT against Zfp239,inactive: -0.753
14,GGUCUUCAGCAGUCAUCAGTT against Sprr2d,inactive: 0.391
15,GGAUAAGAUAAUGUCUGUGTT against Olfr716,inactive: -1.73
16,GCCUGAAGCAAGACAAGAUTT against Dmkn,inactive: -0.232
17,GGAUCCUCUUCUAUCUUUATT against Pycr1,inactive: -1.27
18,GGGUGUUCUAAGUAGUCGCTT against Cdk3,inactive: -0.187
19,CCAAGAUUCUCCUGAAUUATT against Plod2,inactive: -0.183
20,CCAGGAACGCACUUUGUCATT against Tnrc18,inactive: -0.73
21,GCCAAAACAUUUCAGAGCCTT against Hemk1,inactive: -0.000768
22,GGCUUUGAUGCAACUUCUGTT against Slc18a1,inactive: -0.405

# An excerpt of these results, with bars between the fields.
row | Sequence | z-score
22 | GCCUUAGAAGUUAACAUGUTT against Suco | inactive: -0.368
1 | CCAGUAGCACGUGUUAUUUTT against Rbmy | inactive: 0.0944
2 | GGAACUGAUUGAAAACAUCTT against Syce2 | active: 2.97
3 | GGAUGUGCAUCACUUCAACTT against Sgsh | inactive: -1.75
4 | GGAAAGAUUGUUUGAAGGCTT against Cask | inactive: -0.252
5 | GGUGACAAUAAAAUGGUGATT against Fabp1 | inactive: -0.279
6 | GGAGACUUAUUGAGCAAGUTT against Usp44 | active: 4.42
7 | GGAGAAGACAUGUUAAUAATT against Aox1 | inactive: -0.305
8 | GGAUGUUGCGUCACCUACGTT against Zfp423 | inactive: -0.349
9 | GGAGAUGGCUUCUCUCUCGTT against Rarg | inactive: 1.22
10 | GGCCAACACUGAUACCAAATT against Plau | inactive: 0.74
11 | GCUGAUGGACUCAAGAAAGTT against Zbed5 | inactive: -0.805
12 | CGACGAAGCGACCAUUCUUTT against Jchain | inactive: -0.386
13 | GGCUUCAGCCAGAGUUCAGTT against Zfp239 | inactive: -0.753
14 | GGUCUUCAGCAGUCAUCAGTT against Sprr2d | inactive: 0.391
15 | GGAUAAGAUAAUGUCUGUGTT against Olfr716 | inactive: -1.73
16 | GCCUGAAGCAAGACAAGAUTT against Dmkn | inactive: -0.232
17 | GGAUCCUCUUCUAUCUUUATT against Pycr1 | inactive: -1.27
18 | GGGUGUUCUAAGUAGUCGCTT against Cdk3 | inactive: -0.187
19 | CCAAGAUUCUCCUGAAUUATT against Plod2 | inactive: -0.183
20 | CCAGGAACGCACUUUGUCATT against Tnrc18 | inactive: -0.73
21 | GCCAAAACAUUUCAGAGCCTT against Hemk1 | inactive: -0.000768

# Later entries:

row,Sequence,z-score
1,GGAAGCCACGGUCAUGUGUTT against Trim9,inactive: 0.746
2,GCUGGUGAGUCACUGAUGATT against Med22,inactive: 1.32
3,GGUAUGGGUGAGAGCAACUTT against Ndufaf5,inactive: 0.908
4,GGAAUUCUACCGUUAUAUUTT against Trap1,inactive: -0.503
5,GGUCCAGAAAAUGUUUAUATT against Slc35a4,inactive: -0.599
6,GGAUAUGCCUCCCUUGAUGTT against Gstt3,active: -2.4
7,GGUUGAAGUGUGUUGCUUUTT against Atp13a1,inactive: 0.908
8,GGUGAUCACAAAUAUGAUGTT against Ubxn2b,inactive: -0.173
9,CGUUUCCAGAUUGCACCUUTT against Rnaseh2b,inactive: 1.48
10,GGAUCUGCUUGCAUUUGCATT against Map3k8,inactive: 0.595
11,GGAAUAUAAUGGUUACACATT against Trf,inactive: 0.0776
12,CCAAGAAAGCAGGAUUAAGTT against Noxo1,inactive: 0.41
13,GGAAGAUUUCCUCUCCAAGTT against Dnajc15,inactive: 0.239
14,GGACAGUUCAAGAUGUUCCTT against Mthfr,inactive: -0.348
15,CGAAAGAAGGUGAGGGCUCTT against Ppp1r9a,inactive: -0.653
16,GGUUAGCUUCUUAAAACCATT against Adcy10,inactive: -0.605
17,GCACCAAUGGAACAGUGAUTT against Chfr,inactive: 0.202
18,CCCAUAUCCUAGCUCUCUUTT against Olfr1230,inactive: -1.49
19,CGCAGCUUCCACAUUAGUGTT against Rad23a,inactive: -0.267
20,GGAAGAAAAAAACUUCGUUTT against Gabrg3,inactive: 0.186
21,CCUGUCUGGACUUGUCUAATT against Ica1,active: -2.05
22,GCUCAUUCAACCAAUAUGCTT against Tmprss7,inactive: -0.66

row,Sequence,z-score
1,GGCGCACAAUCAAGAUCUUTT against Col4a4,inactive: 0.385
2,GUUAUCAUCACCAUGUUGGTT against Atp6v0e,inactive: -1.4
3,GGUUGCUCACUCAUUUAACTT against Pa2g4,active: 2.18
4,GGGAUUACUUGUAUCGGGATT against Lrrc46,inactive: 0.448
5,GGGAAUUGCUUUUAAAUGATT against Cnot6l,inactive: -0.664
6,GGAGUCAUGAAGACCAAUUTT against Tex48,inactive: 0.552
7,GGCUUUGAUCAGCUCAGAATT against Klhl9,inactive: -0.243
8,GCCGUGGUGUGGAUUUUUGTT against Cenpa,inactive: -1.24
9,GGCUGUGUUUUUGAACCUUTT against Chrna3,inactive: -0.323
10,CGGUCCAAUCUUCUACCCUTT against Rnaset2b,inactive: -0.695
11,GCAAUAUUUCAGCACACUGTT against Txndc16,inactive: -1.08
12,GGUGUACCUUGGGACUUACTT against Prpf18,active: -2.84
13,CACUUAUGACCACGCUGAUTT against Olfr809,inactive: 0.113
14,GGAGCAACAGAGAUUUCUUTT against Sergef,active: 2.07
15,GGAGACAUGGACUCCUAUATT against Nt5el,inactive: 0.201
16,GGUGAGAGGAAGGAAGAGATT against Pcsk7,active: 2.54
17,GAUUAUCCAUUGCCCGAUGTT against Lce1h,inactive: 0.724
18,GGACUUUUAUCACGAAGAGTT against E230016K23Rik,inactive: 0.584
19,CGUAGAGAGUCUCCCAUCATT against 4930474N05Rik,inactive: -1.63
20,GCAAAAGAGGGAAUAAUUCTT against Ssb,inactive: 0.397
21,GCAGCUAGCGAUCUUUGGUTT against Thpo,inactive: 0.955
22,GGAGGAUGAGAAAGAAGAGTT against Gja8,inactive: -0.176

row,Sequence,z-score
1,GGUGUGGUAUCUCUUGUAGTT against Tfdp1,inactive: 0.0183
2,GCCAGUGAGGCUACUUUCATT against Myo18a,inactive: 1.88
3,GGAACAAUUUGAUCCAGCATT against Mbnl2,inactive: -1.67
4,GGCAAACAUGUGUUCCCUGTT against Prap1,inactive: -1.85
5,GCUAGGCUUAUGAUCUUUUTT against Pfkp,inactive: -0.525
6,GGGUCCAGUAUCCAUCAAATT against Sf3a1,active: -2.7
7,GCUUUCAAAUGAAUCUGGATT against D630023F18Rik,inactive: -0.531
8,GCACCUACACCGCUUACAUTT against Tmem101,inactive: -0.499
9,GGCAAUUCUCUGUAUCCACTT against Cyp2d34,inactive: -0.358
10,GGCUUCAAGGAGACUGCUUTT against Wnt9a,inactive: 0.856
11,GGGAGAGCACAGAUGUGGATT against Dock8,inactive: -1.28
12,CGACCUACAUCAUUAUGAATT against Chrm3,inactive: 0.0125
13,GGACAUUCCUGAACAUAAUTT against Pcdha3,inactive: -1.17
14,GGAUACAAUACACGGACGATT against Syt14,inactive: -0.0737
15,CCCUCAGCUACAUUCUCCUTT against Olfr1313,inactive: -0.784
16,CCCUGAAGUUUAUGCAACATT against Ttyh2,active: -3.02
17,GGACACUUGUCUUCACUUGTT against Fancc,inactive: 0.339
18,CAUGGUUUUUAGAGACAAUTT against Olfr774,inactive: 0.123
19,GCUAGAGAAAUGGAAUUUATT against Kansl3,inactive: -0.653
